Experimental data from patent US5628328A, “Method for measuring muscle mass” (priority 1995, dated 1997).
Some results come without the dose or concentration used.

Assay: Correlation of model compartments with muscle, pigs
Assay type: in vivo

Cn1cnc(C[C@H](N)C(=O)O)c1 [3-methylhistidine]
Correlation coefficient r, plasma 3MH vs. kg of muscle: -0.52
